From PMC6571972 (Pharmaceutics, 2019)

Assay: general procedure: Fmoc solid-phase peptide synthesis; chlorotrityl resin; DIC/Oxyma
Settings: for final HPLC purity: 220 nm

N3-PEG4-Val-Cit-Gly-Pro-Cy5.5
conjugation yield (conjugation step): 98% yield | final HPLC purity (conjugation step): >99% purity

N3-PEG4-Val-Cit-Gly-Pro
final HPLC purity (whole synthesis): 91% purity

N3-PEG4-Val-Cit-Gly-Pro-Cry-55gly
conjugation yield (conjugation step): 79% yield | final HPLC purity (conjugation step): 97% purity

N3-PEG4-Val-Cit-Pro-Gly-Cry-55gly
conjugation yield (conjugation step): 54% yield | final HPLC purity (conjugation step): >99% purity

N3-PEG4-Val-Cit-Pro-Gly
final HPLC purity (whole synthesis): >99% purity
